Measurements as given in PMC12040169 (PLOS Biology, 2025).
Some of the results follow.

Test system: T1, CTL2-GFP (C. trachomatis L2/434/Bu, GFP-expressing)
T1 construct: L2/434/Bu, GFP-expressing
Parameters: species or system HeLa; Intracellular C. trachomatis growth in HeLa cells, bulk GFP fluorescence relative to DMSO
Conditions: bulk GFP, single well; 28.5 h, 10 µM; inhibitor

How did the “% of control remaining” value turn out when `CN1CCN(c2nc(-c3ccc4c(c3)CCCC(=O)N4)cs2)CC1` [CBK305600] was run?
The value was 103.78%.

`Cc1ccc(CN(CCCn2ccnc2)Cc2nccn2C)s1` [CBK283137] was tested. Which “% of control remaining” value did it give?
Its value is 113.649%.

Which “% of control remaining” value does the source give for `CS(=O)(=O)N(CC(=O)Nc1ccccc1C(=O)N1CCCC1)c1cc(Cl)c(Cl)cc1Cl` [CBK268826] here?
The value was 112.534%.

With `O=C(Cn1cc(C(=O)NCC2(c3ccccc3Cl)CC2)ccc1=O)NC1CCCCC1` [CBK285985] as the molecule, how does the “% of control remaining” value read?
The value was 122.468%.

Which “% of control remaining” value does the source give for `COc1ccc(C)cc1S(=O)(=O)Nc1cc(N2CCNC(C(F)(F)F)C2)c2occc2c1` (centres unmarked) [CBK073818C] here?
Its value is 133.173%.

Which “% of control remaining” value does the source give for `C[C@@H](c1ccccc1)n1c(=O)[nH]c2ncc(-c3cncc4ccccc34)nc21` [CBK064726] here?
The value was 101.967%.

Which “% of control remaining” value does the source give for `CCOCCC(=O)N/N=C(/C)c1ccc(Cl)s1` [CBK007454] here?
The value was 108.81%.

For `O=S(=O)(c1ccccc1)C1CCCCO1` (centres unmarked) [CBK020284], which “% of control remaining” value is on record?
The value was 144.566%.

For `COc1ccccc1-c1ccc(NS(=O)(=O)c2ccc3c(c2)CCC(=O)N3)cc1` [CBK286353], which “% of control remaining” value is on record?
Its value is 106.513%.

With `CCOc1ccc(NC(=O)C(=O)NC2CCCCC2)cc1` [CBK261822] as the molecule, how does the “% of control remaining” value read?
Its value is 117.872%.

How did the “% of control remaining” value turn out when `CC(C)(C)COC(=O)N1CCC2(CC1)CC(=O)N(Cc1ccc(S(C)(=O)=O)cc1)C2=O` [CBK155949] was run?
The value was 118.12%.

For `Cc1nc(CN2CCCN(S(=O)(=O)c3ccc(C(=O)c4ccccc4)cc3)CC2)c[nH]1` [CBK063029], which “% of control remaining” value is on record?
The value was 93.8174%.

With `Cc1ccc(-c2noc([C@@H]3C[C@H](NC(=O)CCC(=O)O)CN3C)n2)cc1` [CBK288852] as the molecule, how does the “% of control remaining” value read?
Its value is 109.996%.

`O=C(O)C1CC=C(Cl)CC1C(=O)Nc1ccc(Cl)cc1[N+](=O)[O-]` (centres unmarked) [CBK265612] was tested. Which “% of control remaining” value did it give?
The value was 123.022%.

Which “% of control remaining” value does the source give for `COc1ccccc1-c1noc(CN2CCCC(C(F)(F)F)C2)n1` (centres unmarked) [CBK305598] here?
The value was 138.942%.

With `CCc1cc(C(=O)OC)c(NC(=O)CC2Nc3cccc4cccc(c34)NC2=O)s1` (centres unmarked) [CBK267563] as the molecule, how does the “% of control remaining” value read?
The value was 140.797%.

With `CCC(O)Cn1nc(CCSC)nc1-c1ccc2[nH]ccc2c1` (centres unmarked) [CBK307526] as the molecule, how does the “% of control remaining” value read?
Its value is 109.386%.

Which “% of control remaining” value does the source give for `N=C(SC1CC(=O)N(c2ccc(C(=O)O)cc2)C1=O)N1N=C(c2ccccc2)CC1c1ccccc1` (centres unmarked) [CBK262446] here?
The value was 147.204%.

For `O=C(Nc1ccc(F)cc1F)Nc1cc(Cl)sc1Cl` [CBK019967], which “% of control remaining” value is on record?
The value was 117.619%.

`CC(C)(C)c1cc(NC(=O)c2csc3c(C(F)(F)F)cc(N4CCN(Cc5ccccc5)CC4)nc23)no1` [CBK028962] was tested. Which “% of control remaining” value did it give?
Its value is 101.954%.

With `CC1(C)CC(=O)C=C(C(=O)NCc2ccc3c(c2)OCO3)O1` [CBK153290] as the molecule, how does the “% of control remaining” value read?
Its value is 100%.

With `COc1ncccc1C(=O)Nc1c(C)noc1C` [CBK200307] as the molecule, how does the “% of control remaining” value read?
Its value is 99.908%.

Which “% of control remaining” value does the source give for `O=C(CSc1cnn[nH]1)Nc1ccc(F)cc1` [CBK270024] here?
Its value is 127.719%.

With `O=S(=O)(Nc1cc(NCCCN2CCOCC2)c2occc2c1)c1ccccc1C(F)(F)F` [CBK067838C] as the molecule, how does the “% of control remaining” value read?
The value was 62.0028%.

For `O=C(Oc1ccccc1)c1ccnc(Cl)c1` [CBK090322], which “% of control remaining” value is on record?
The value was 128.625%.

Which “% of control remaining” value does the source give for `CN1CCC(N2CCN(C(=O)Nc3cccnc3)CC2)CC1` [CBK156111] here?
Its value is 105.301%.

How did the “% of control remaining” value turn out when `Cc1nc(C)c(-c2csc(Nc3ccc(C(=O)O)c(O)c3)n2)s1` [CBK267263] was run?
Its value is 132.589%.

With `CCC(Oc1ccccc1)C(=O)Nc1cc(OC)c(Cl)cc1OC` (centres unmarked) [CBK262235] as the molecule, how does the “% of control remaining” value read?
Its value is 98.1918%.

How did the “% of control remaining” value turn out when `O=C(COc1ccc2oc3c(c2c1)CCCC3)Nc1cccc2cccnc12` [CBK266137] was run?
Its value is 145.316%.

Which “% of control remaining” value does the source give for `Cc1cc(C[C@@H]2COC[C@H]2NCc2c(F)cccc2Cl)on1` [CBK282994] here?
The value was 131.025%.

With `COc1ccc(C(=O)NCCCc2nc3ccccc3[nH]2)cc1OC` [CBK270018] as the molecule, how does the “% of control remaining” value read?
The value was 87.0956%.

With `CC1CCCCN1Cc1ccc(-c2nnn(CC(=O)NCc3ccco3)n2)cc1` (centres unmarked) [CBK122002] as the molecule, how does the “% of control remaining” value read?
The value was 100%.

With `O=C(O)CSc1nnc(-c2ccc(F)cc2)o1` [CBK068115] as the molecule, how does the “% of control remaining” value read?
Its value is 139.374%.

`NCCCOc1cncc(N2CCCC2)n1` [CBK115603] was tested. Which “% of control remaining” value did it give?
Its value is 97.0112%.

For `COC(=O)c1sc(NC(=O)C2CCCCC2C(=O)O)c(C(=O)OC)c1C` (centres unmarked) [CBK265389], which “% of control remaining” value is on record?
Its value is 106.646%.

For `CCn1c(/C=C/C2=CCN(C)CC2)nc2ccccc21` [CBK283745], which “% of control remaining” value is on record?
The value was 125.571%.

Which “% of control remaining” value does the source give for `Cc1ccc(C)c(CSC2CCN(C3CCOCC3)C2=O)c1` (centres unmarked) [CBK304865] here?
The value was 126.92%.

`Cc1ccc(OCC(=O)NC(=S)Nc2cccc(-c3nc4ncccc4o3)c2C)cc1` [CBK263925] was tested. Which “% of control remaining” value did it give?
Its value is 95.612%.

Which “% of control remaining” value does the source give for `COc1ccc2c(ccn2S(=O)(=O)c2ccc(N3CCNCC3)c(C(F)(F)F)c2)c1` [CBK034033C] here?
Its value is 57.7864%.

Which “% of control remaining” value does the source give for `O=C(O)c1ccc(CN2CCOC[C@H]2c2nc(-c3ccc(C(F)(F)F)cc3)c[nH]2)cc1` [CBK289317] here?
Its value is 107.054%.

For `CC(C)C(=O)Nc1ccc2nc(-c3ccoc3)c(-c3ccoc3)nc2c1` [CBK286304], which “% of control remaining” value is on record?
Its value is 116.271%.

How did the “% of control remaining” value turn out when `O=C(c1ccccc1)n1c(=S)nc2n(c1=S)CCN2` [CBK021794] was run?
Its value is 151.567%.

Which “% of control remaining” value does the source give for `CSc1cccc(CN2C[C@H]3CN(C(=O)C4CCC4)C[C@@]3(C(=O)O)C2)c1` [CBK307645] here?
Its value is 159.182%.

With `CN1C2C=C(N(CCc3ccccc3)C(=O)c3ccc(Cl)cc3)CC1CC2` (centres unmarked) [CBK262604C] as the molecule, how does the “% of control remaining” value read?
The value was 100%.

`Cc1noc(C)c1C(=O)N1CCN(CCc2ccccc2)CC1` [CBK200225] was tested. Which “% of control remaining” value did it give?
Its value is 96.2045%.

How did the “% of control remaining” value turn out when `Oc1ccc(/C=N/c2nnn[nH]2)cc1` [CBK260976] was run?
Its value is 92.3364%.

For `c1cn2cnnc2c(N2CCOC(c3ccsc3)C2)n1` (centres unmarked) [CBK306379], which “% of control remaining” value is on record?
Its value is 104.29%.

For `Cc1ccc2nc(CSc3ncnc4sc(C)cc34)[nH]c2c1` [CBK270047], which “% of control remaining” value is on record?
Its value is 112.732%.

How did the “% of control remaining” value turn out when `COc1ccccc1N1C(=O)c2ccc(C(=O)Nc3cc([N+](=O)[O-])ccc3O)cc2C1=O` [CBK264272] was run?
The value was 128.728%.

How did the “% of control remaining” value turn out when `O=C1c2ccccc2CN1c1cccc(Cl)c1Cl` [CBK109916] was run?
The value was 116.386%.
